Reference: article PMC12040169 (PLOS Biology, 2025)
The other results are listed elsewhere or left out.

What follows are molecules tested on T1, CTL2-GFP (C. trachomatis L2/434/Bu, GFP-expressing). Conditions: bulk GFP, single well; 28.5 h, 10 µM; inhibitor.
T1 construct: L2/434/Bu, GFP-expressing
Design: species or system HeLa; Intracellular C. trachomatis growth in HeLa cells, bulk GFP fluorescence relative to DMSO
COc1ccc(CC(=O)Nc2ccc(OCC(=O)O)cc2)cc1 [CBK264244] was tested, and the “% of control remaining” value was 95.2698%.
With O=C(Cc1ccc(F)cc1)N1CCOC(Cn2ccnc2)C1 (centres unmarked) [CBK282875] the “% of control remaining” value was 113.852%.
For CC(Oc1cccc(Cl)c1)c1nc(-c2cccs2)no1 (centres unmarked) [CBK293984], the “% of control remaining” value was 132.888%.
With COc1ccc(-c2noc([C@@H]3C[C@H](NC(=O)c4ccc(F)cc4)CN3C)n2)cc1 [CBK288861] the “% of control remaining” value was 84.8583%.
In the case of CCCCN(C)c1c(C)nc2c(OCC(=O)c3ccc(F)cc3)cccn12 [CBK147172], the “% of control remaining” value is reported as 167.691%.
In the case of O=c1[nH]n(-c2ccccc2)c(=O)n1Cc1ccccc1F [CBK122770], the “% of control remaining” value is reported as 149.155%.
In the case of O=C(c1ccsc1NS(=O)(=O)c1ccc2ccccc2c1)N1CCOCC1 [CBK042278], the “% of control remaining” value is reported as 100%.
For COCc1nc(NCCCn2c(C)cccc2=O)cc([C@H]2C[C@H](N)C2)n1 [CBK307337], the “% of control remaining” value was 111.501%.
With Cc1ccc(CSCc2nc3ccccc3[nH]2)cc1 [CBK265238] the “% of control remaining” value was 111.754%.
In the case of COc1ccc(CNC(=O)N2CCN(c3ccccc3OC)CC2)cc1OC [CBK155609], the “% of control remaining” value is reported as 105.423%.
For CC1CCN(S(=O)(=O)c2ccc(NC(=O)COc3ccc4ccccc4c3)cc2)CC1 [CBK264969], the “% of control remaining” value was 121.356%.
In the case of O=C(c1cnoc1-c1ccc(F)cc1)N1CCCC1 [CBK153707], the “% of control remaining” value is reported as 131.49%.
With O=C(O)c1cc2nc3c(c(C(F)(F)F)n2n1)CCc1ccccc1-3 [CBK263025] the “% of control remaining” value was 120.22%.
For NC(=O)CN1CCC(Oc2cncc(OCCN3CCOCC3)n2)C1 (centres unmarked) [CBK084488], the “% of control remaining” value was 109.255%.
With CSc1ncnc2c1CC=N2 [CBK007532] the “% of control remaining” value was 142.995%.
With O=C(c1ccccc1F)N1CCC(c2n[nH]c3ncccc23)CC1 [CBK284903] the “% of control remaining” value was 120.963%.
For CCN1CCN(C(=O)c2ccccc2N(Cc2ccccc2)S(C)(=O)=O)CC1 [CBK267028], the “% of control remaining” value was 151.868%.
CC(C)Oc1cccc(C(=O)Nc2ccc(N3CCN(C)CC3)cc2)c1 [CBK266090] was tested, and the “% of control remaining” value was 131.82%.
In the case of COc1ccc(S(=O)(=O)Nc2sccc2C#N)cc1 [CBK034732], the “% of control remaining” value is reported as 128.299%.
With CNC(=O)c1ccc(-c2ccc(N3CCOCC3)cc2)nc1NCC1CC1 [CBK106305] the “% of control remaining” value was 114.567%.
With Cc1cc(C)c2nc(-c3ccccn3)cc(C(=O)Nc3cccc(Cn4cccn4)c3)c2c1 [CBK267723] the “% of control remaining” value was 122.123%.
For CC(=O)c1csc(NC(=O)Cn2ccc3ccc(F)cc32)n1 [CBK282572], the “% of control remaining” value was 87.7795%.
In the case of COc1ccc(N2C(=O)CC(Sc3ncccc3C(=O)O)C2=O)cc1 (centres unmarked) [CBK263387], the “% of control remaining” value is reported as 134.344%.
For CC1CN(c2cc(CO)c(F)cn2)CC2(CCOCC2)O1 (centres unmarked) [CBK304773], the “% of control remaining” value was 123.473%.
COC(=O)COc1ccccc1/C=C1\SC(c2ccc(C)cc2)=NC1=O [CBK067741] was tested, and the “% of control remaining” value was 128.7%.
With CCOc1ccccc1NC(=O)NC1CC2CCC(C1)N2Cc1ccccc1 (centres unmarked) [CBK116294] the “% of control remaining” value was 100%.
Cc1cc(NC(=O)c2ccc(Cl)c([N+](=O)[O-])c2)nc2c1c(=O)oc1ccccc12 [CBK291263] was tested, and the “% of control remaining” value was 136.315%.
O=C(NCCN1CCC(O)(c2cccc(F)c2)CC1)C1CCCC1 [CBK283285] was tested, and the “% of control remaining” value was 121.951%.
With O=C(Cn1cccn1)NC(Cc1ccsc1)c1ccccn1 (centres unmarked) [CBK285284] the “% of control remaining” value was 121.258%.
In the case of O=C(NCc1ccccn1)Nc1cccc(Cl)c1 [CBK058569], the “% of control remaining” value is reported as 116.566%.
In the case of CCNC(=O)C1CCN(Cc2c[nH]nc2-c2ccc(F)cc2)C1 (centres unmarked) [CBK307438], the “% of control remaining” value is reported as 100.297%.
O=C(CCc1ccno1)NC(Cc1ccsc1)c1cccnc1 (centres unmarked) [CBK285395] was tested, and the “% of control remaining” value was 127.109%.
In the case of O=C1CC2(CCN(C(=O)C3CCCC3)CC2)Oc2ccc(Cl)cc21 [CBK283625], the “% of control remaining” value is reported as 102.002%.
CN(C)c1cccc(C(=O)N2CC[C@@H](c3ccccc3)[C@H](O)C2)c1 [CBK283713] was tested, and the “% of control remaining” value was 143.695%.
In the case of O=C(Nc1cccc2[nH]ccc12)c1ccc(Br)cc1Cl [CBK159643], the “% of control remaining” value is reported as 106.152%.
For CCN(CC)CCn1cc(C2CCCN(C)CC2)c2ccccc21 (centres unmarked) [CBK023788B], the “% of control remaining” value was 92.3962%.
For Cc1ccccc1-n1c(C)cc(C(=O)CSc2nncn2C)c1C [CBK298330], the “% of control remaining” value was 102.331%.
CC(=O)Nc1ccc(-c2ccc(C(=O)N3CCN(C(=O)c4ccco4)CC3)cn2)cc1 [CBK160186] was tested, and the “% of control remaining” value was 85.2736%.
With CN1CCN(C)C(CNC(=O)c2ccc(-c3ccccc3CO)cc2)C1 (centres unmarked) [CBK307475] the “% of control remaining” value was 114.5%.
Cc1cnn(-c2cc(Oc3ccccc3)ncn2)c1 [CBK287276] was tested, and the “% of control remaining” value was 87.6872%.
With Cc1cc(CSc2cccs2)no1 [CBK002635] the “% of control remaining” value was 102.79%.
With Cc1ccc(NC(=O)CCC(=O)O)c(C(=O)c2ccccc2)c1 [CBK262611] the “% of control remaining” value was 100%.
With c1ccc(Cc2nn3c(COc4ccccc4)nnc3s2)cc1 [CBK267163] the “% of control remaining” value was 150.939%.
For CC1CCN(C(=S)Nc2ccccc2)CC(C)(C)C1 (centres unmarked) [CBK006185], the “% of control remaining” value was 78.8523%.
In the case of CC(=O)Nc1ccc(Sc2ccccn2)cc1 [CBK085853], the “% of control remaining” value is reported as 97.4462%.
For OCc1ccccc1-c1cncc(NCc2ccc3c(c2)OCO3)n1 [CBK065318], the “% of control remaining” value was 99.4804%.
For Cc1cc2ccccc2n2c(SCC(=O)NCc3ccco3)nnc12 [CBK265666], the “% of control remaining” value was 115.426%.
With COc1ccccc1-c1ncc(OC2CCN(C)C2)nc1N (centres unmarked) [CBK145081] the “% of control remaining” value was 148.909%.
For COc1ncc(-c2nccnc2OCc2cccs2)c(OC)n1 [CBK106750], the “% of control remaining” value was 133.641%.
In the case of CC(CO)(CO)Nc1ccc(C(F)(F)F)cc1[N+](=O)[O-] [CBK262806], the “% of control remaining” value is reported as 85.0553%.
O=C(CSc1nnnn1-c1ccc(O)cc1)NC1CCCC1 [CBK295659] was tested, and the “% of control remaining” value was 106.299%.
For CN(C)CCO/N=C1\CC2(CCCC2)c2ccc(Cl)cc21 [CBK013334], the “% of control remaining” value was 100%.
With CCOc1ccc(C2CCCN2S(=O)(=O)c2c[nH]c(=O)[nH]c2=O)cc1 (centres unmarked) [CBK285806] the “% of control remaining” value was 124.96%.
With CCCn1c(NCc2cccc(OC)c2O)nc2ccccc21 [CBK133763] the “% of control remaining” value was 120.503%.
In the case of Nc1nnc(-c2ccc(Oc3nc(N4CCOCC4)nc(N4CCOCC4)n3)cc2)s1 [CBK266305], the “% of control remaining” value is reported as 173.616%.
For N#Cc1cccc(NC(=O)CN2CCN(C(=O)C3COc4ccccc4O3)CC2)c1 (centres unmarked) [CBK074779], the “% of control remaining” value was 130.501%.
With CCCCN(C=O)c1c(CC)nc2ccc(C(=O)NCC3CCCCC3)cn12 [CBK145708] the “% of control remaining” value was 139.331%.
For COC(=O)c1cc(C#N)c(=O)n(CC(=O)Nc2ccc(OC)c(OC)c2)c1 [CBK297926], the “% of control remaining” value was 139.405%.
For CCOc1ncccc1NC(=O)N(CC1CCOC1)C1CC1 (centres unmarked) [CBK305077], the “% of control remaining” value was 133.18%.
For O=C(c1cccc(NS(=O)(=O)Cc2ccccc2)c1)N1CCOCC1 [CBK038991], the “% of control remaining” value was 93.8528%.
With CCOC(=O)c1c(NC(=O)CNCc2cccnc2)sc2c1CCCC2 [CBK304577] the “% of control remaining” value was 132.242%.
Cc1nc(-c2cccnc2)[nH]c(=O)c1CC(=O)N1CCSCC1 [CBK305944] was tested, and the “% of control remaining” value was 138.706%.
For O=C(Cc1nn[nH]n1)Nc1ccc(F)c(Cl)c1 [CBK006384], the “% of control remaining” value was 103.974%.
CCNC(=O)N[C@H]1C[C@@H](Cc2cc(CN(C)C)on2)C1(C)C [CBK289310] was tested, and the “% of control remaining” value was 168.726%.
For CC(C)[C@H](CO)Nc1nccnc1-c1ccccc1F [CBK037987], the “% of control remaining” value was 99.76%.
COc1ccc(C)cc1S(=O)(=O)n1ccc2c(CNC3CCN(C)CC3)cccc21 [CBK113308T] was tested, and the “% of control remaining” value was 100.686%.
CSCC(O)Cn1nc(O)cc(C)c1=O (centres unmarked) [CBK006293] was tested, and the “% of control remaining” value was 146.103%.
COc1cccc(C(=O)N2Cc3ccccc3CC2C(=O)O)c1 (centres unmarked) [CBK287150] was tested, and the “% of control remaining” value was 125.98%.
For Cn1c2c(c(=O)n(C)c1=O)[C@@H]1C(C[C@](O)(COCc3ccccc3)[C@H]1O)C1(CCC1)N2 (some centres unmarked) [CBK303265], the “% of control remaining” value was 117.353%.
In the case of O=C1/C(=C2/Sc3ccccc3N2CCCS(=O)(=O)O)SC(=S)N1c1ccccc1 [CBK260954G], the “% of control remaining” value is reported as 100%.
For O=S(=O)(O)c1ccc(N/N=C/c2cccc(/C=N/Nc3ccc(S(=O)(=O)O)cc3)c2)cc1 [CBK278204N], the “% of control remaining” value was 114.763%.
In the case of COc1ccc(Cl)cc1S(=O)(=O)N1CCC(C(N)=O)(N2CCCCC2)CC1 [CBK269571], the “% of control remaining” value is reported as 96.6794%.
With Cc1onc(-c2ccccc2)c1NC(=O)Nc1cc2ccccc2c(Br)n1 [CBK105489] the “% of control remaining” value was 127.534%.
In the case of O=C(Oc1ccc(N(C(=O)c2ccncc2)S(=O)(=O)c2cccc3cccnc23)cc1)c1ccncc1 [CBK267123], the “% of control remaining” value is reported as 166.553%.
CCN(CC)S(=O)(=O)c1ccc(C)c(C(=O)Oc2cccc(-c3cnc4ccccc4n3)c2)c1 [CBK264577] was tested, and the “% of control remaining” value was 100%.
For O=[N+]([O-])c1ccc(CN2CCC(Oc3cncc(OCC4COc5ccccc5O4)n3)C2)cc1 (centres unmarked) [CBK084369], the “% of control remaining” value was 96.0124%.
In the case of O=C(Cc1cn2ccsc2n1)NCCS(=O)(=O)N1CCc2ccccc21 [CBK304282], the “% of control remaining” value is reported as 138.951%.
For COCC1(C)NC(=O)N(Cc2nn(-c3ccccc3)c3c2CCC3)C1=O (centres unmarked) [CBK306483], the “% of control remaining” value was 139.919%.
With COc1ccc(-c2cnc3[nH]c(=O)n(CC(C)(C)CO)c3n2)c(OC)c1OC [CBK064833] the “% of control remaining” value was 138.683%.
In the case of CS(=O)(=O)Nc1ccc(C2=NN(S(C)(=O)=O)C(c3ccc4nccnc4c3)C2)cc1 (centres unmarked) [CBK267546], the “% of control remaining” value is reported as 113.842%.
